These are yes or no findings as the source states them, for the method shown. Binding seen in cells or lysates may run through a third protein. Some binding calls cover weakened binding; strength is not graded here.
Biological target: T1, FOG1 (friend of GATA1) (UniProt O35615)
T1 sequence: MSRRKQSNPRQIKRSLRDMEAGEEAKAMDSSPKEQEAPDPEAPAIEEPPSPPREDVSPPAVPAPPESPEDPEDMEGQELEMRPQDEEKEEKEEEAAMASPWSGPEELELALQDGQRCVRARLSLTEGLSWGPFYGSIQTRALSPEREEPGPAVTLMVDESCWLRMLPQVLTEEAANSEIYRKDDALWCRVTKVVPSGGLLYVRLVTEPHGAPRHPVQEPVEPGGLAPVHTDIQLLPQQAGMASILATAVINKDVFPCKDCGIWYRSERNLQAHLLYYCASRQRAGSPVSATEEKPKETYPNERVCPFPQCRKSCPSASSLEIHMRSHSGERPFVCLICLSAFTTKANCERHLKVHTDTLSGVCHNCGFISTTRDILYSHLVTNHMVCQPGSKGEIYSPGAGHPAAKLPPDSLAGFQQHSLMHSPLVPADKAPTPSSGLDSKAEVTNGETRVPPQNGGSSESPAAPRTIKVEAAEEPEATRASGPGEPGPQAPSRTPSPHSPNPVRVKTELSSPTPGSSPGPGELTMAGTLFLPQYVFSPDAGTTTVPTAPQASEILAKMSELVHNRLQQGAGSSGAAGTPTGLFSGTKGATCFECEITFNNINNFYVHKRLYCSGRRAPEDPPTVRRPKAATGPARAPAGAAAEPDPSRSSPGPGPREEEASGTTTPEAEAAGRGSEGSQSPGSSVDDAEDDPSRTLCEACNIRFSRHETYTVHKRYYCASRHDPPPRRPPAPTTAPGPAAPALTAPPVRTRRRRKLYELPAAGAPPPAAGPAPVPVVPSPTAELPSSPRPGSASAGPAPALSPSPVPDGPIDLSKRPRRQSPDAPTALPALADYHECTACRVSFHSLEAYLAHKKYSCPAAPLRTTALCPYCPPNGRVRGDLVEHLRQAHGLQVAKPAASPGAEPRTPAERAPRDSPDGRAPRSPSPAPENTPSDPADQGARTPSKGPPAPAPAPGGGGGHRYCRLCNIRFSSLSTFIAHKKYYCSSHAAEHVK
Assay: co-IP; Ldb1 and FOG1; cells and constructs not told

binding: binds
B1: Ldb1 (as in the co-immunoprecipitation with FOG1) (protein, UniProt P70662 1-411)
chain: MSVGCACPGCSSKSFKLYSPKEPPNGNAFPPFHPGTMLDRDVGPTPMYPPTYLEPGIGRHTPYGNQTDYRIFELNKRLQNWTEECDNLWWDAFTTEFFEDDAMLTITFCLEDGPKRYTIGRTLIPRYFRSIFEGGATELYYVLKHPKEAFHSNFVSLDCDQGSMVTQHGKPMFTQVCVEGRLYLEFMFDDMMRIKTWHFSIRQHRELIPRSILAMHAQDPQMLDQLSKNITRCGLSNSTLNYLRLCVILEPMQELMSRHKTYSLSPRDCLKTCLFQKWQRMVAPPAEPARQQPSKRRKRKMSGGSTMSSGGGNTNNSNSKKKSPASTFALSSQVPDVMVVGEPTLMGGEFGDEDERLITRLENTQFDAANGIDDEDSFNNSPALGANSPWNSKPPSSQESKSENPTSQASQ

From paper PMC3600747
